The list shows a part of the results.

Amino acid sequences for entries named in this document (tags omitted). A change or cut given only in a name is not applied to a line headed by its entry.
UniProt O43768: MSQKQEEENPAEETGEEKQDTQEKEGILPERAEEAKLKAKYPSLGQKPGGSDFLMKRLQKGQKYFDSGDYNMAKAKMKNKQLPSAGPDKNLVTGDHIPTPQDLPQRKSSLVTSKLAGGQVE
UniProt O00559: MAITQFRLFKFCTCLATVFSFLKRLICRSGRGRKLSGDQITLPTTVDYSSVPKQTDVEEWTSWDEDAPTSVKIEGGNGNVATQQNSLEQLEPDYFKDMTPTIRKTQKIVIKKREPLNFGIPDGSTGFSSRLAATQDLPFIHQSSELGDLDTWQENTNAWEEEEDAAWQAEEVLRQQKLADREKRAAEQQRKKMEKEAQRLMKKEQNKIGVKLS
UniProt Q92785, whole entry: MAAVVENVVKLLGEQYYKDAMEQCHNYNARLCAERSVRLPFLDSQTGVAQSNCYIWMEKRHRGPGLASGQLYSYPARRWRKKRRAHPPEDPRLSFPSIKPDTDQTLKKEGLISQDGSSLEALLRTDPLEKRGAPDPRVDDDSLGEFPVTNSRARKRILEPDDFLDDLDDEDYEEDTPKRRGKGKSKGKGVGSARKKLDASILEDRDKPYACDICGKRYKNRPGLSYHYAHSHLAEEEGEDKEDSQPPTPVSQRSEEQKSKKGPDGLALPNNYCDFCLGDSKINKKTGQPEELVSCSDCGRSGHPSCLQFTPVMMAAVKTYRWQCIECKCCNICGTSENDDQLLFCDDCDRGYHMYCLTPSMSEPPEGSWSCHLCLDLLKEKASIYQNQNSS
UniProt Q8TBM8: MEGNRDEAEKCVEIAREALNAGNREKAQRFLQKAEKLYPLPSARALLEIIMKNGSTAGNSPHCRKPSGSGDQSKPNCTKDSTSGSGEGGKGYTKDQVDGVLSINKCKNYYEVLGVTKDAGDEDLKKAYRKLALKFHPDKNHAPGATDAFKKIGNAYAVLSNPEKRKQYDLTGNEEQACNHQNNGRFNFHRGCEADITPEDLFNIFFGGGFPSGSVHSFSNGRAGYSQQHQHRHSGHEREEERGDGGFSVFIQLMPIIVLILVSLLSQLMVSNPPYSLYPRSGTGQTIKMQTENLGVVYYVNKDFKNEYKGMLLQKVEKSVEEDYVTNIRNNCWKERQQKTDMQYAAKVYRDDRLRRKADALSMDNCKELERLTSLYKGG
UniProt P18146, whole entry, looked up: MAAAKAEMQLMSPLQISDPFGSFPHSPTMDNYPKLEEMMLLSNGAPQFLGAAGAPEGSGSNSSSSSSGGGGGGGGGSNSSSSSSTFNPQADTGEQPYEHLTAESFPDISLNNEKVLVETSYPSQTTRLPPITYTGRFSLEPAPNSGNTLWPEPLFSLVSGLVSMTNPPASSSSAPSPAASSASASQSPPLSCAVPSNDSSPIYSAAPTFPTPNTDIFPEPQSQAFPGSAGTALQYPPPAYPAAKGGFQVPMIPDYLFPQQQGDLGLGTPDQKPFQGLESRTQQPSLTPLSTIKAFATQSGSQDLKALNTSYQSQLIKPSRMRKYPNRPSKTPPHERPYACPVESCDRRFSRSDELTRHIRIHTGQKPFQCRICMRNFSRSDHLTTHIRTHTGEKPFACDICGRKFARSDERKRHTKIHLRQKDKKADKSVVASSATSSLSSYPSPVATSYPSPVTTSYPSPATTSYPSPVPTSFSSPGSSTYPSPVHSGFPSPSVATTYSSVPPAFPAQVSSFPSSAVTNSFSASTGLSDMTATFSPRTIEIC
UniProt Q86WC6: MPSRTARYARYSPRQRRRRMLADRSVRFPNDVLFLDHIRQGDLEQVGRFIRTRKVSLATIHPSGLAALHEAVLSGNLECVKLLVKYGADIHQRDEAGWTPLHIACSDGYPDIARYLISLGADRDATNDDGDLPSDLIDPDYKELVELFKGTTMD
UniProt Q8N3D4: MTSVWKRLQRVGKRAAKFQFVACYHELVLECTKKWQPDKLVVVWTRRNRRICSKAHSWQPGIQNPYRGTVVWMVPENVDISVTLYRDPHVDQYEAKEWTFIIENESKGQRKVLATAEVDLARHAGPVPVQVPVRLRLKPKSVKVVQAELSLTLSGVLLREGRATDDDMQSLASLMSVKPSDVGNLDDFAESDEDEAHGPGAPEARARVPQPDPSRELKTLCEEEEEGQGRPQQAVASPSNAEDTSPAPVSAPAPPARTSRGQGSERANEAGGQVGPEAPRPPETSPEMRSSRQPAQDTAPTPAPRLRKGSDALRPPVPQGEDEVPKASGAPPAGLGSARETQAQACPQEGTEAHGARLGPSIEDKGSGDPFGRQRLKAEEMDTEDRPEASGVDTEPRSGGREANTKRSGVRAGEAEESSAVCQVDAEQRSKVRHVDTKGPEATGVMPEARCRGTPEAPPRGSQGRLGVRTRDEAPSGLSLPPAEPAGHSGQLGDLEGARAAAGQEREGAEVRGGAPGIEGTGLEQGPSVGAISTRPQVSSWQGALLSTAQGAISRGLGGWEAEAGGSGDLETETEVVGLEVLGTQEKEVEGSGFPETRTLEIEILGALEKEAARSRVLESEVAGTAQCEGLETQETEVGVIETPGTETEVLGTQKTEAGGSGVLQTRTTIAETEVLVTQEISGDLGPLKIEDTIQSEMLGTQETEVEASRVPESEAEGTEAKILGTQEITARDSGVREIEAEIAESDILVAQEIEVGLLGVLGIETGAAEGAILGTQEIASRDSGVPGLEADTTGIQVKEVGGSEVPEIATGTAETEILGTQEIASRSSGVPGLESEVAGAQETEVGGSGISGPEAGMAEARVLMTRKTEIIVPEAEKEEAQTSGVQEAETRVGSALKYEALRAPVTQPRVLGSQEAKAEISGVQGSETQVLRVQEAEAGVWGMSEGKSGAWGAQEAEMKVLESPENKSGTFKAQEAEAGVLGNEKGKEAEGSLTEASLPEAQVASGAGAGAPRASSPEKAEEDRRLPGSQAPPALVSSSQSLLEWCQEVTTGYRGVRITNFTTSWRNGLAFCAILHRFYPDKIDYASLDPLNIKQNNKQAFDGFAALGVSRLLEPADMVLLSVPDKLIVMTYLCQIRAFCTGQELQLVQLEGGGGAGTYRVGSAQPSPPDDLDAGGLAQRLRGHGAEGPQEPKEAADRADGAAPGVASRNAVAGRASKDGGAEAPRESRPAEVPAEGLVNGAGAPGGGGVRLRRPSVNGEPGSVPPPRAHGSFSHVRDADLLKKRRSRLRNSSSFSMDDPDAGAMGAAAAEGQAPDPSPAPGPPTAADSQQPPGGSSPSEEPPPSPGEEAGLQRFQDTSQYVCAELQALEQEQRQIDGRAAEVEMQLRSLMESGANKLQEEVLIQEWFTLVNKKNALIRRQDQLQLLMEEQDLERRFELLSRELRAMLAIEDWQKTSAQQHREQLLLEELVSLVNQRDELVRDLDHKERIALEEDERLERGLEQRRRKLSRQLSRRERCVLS
UniProt O60884: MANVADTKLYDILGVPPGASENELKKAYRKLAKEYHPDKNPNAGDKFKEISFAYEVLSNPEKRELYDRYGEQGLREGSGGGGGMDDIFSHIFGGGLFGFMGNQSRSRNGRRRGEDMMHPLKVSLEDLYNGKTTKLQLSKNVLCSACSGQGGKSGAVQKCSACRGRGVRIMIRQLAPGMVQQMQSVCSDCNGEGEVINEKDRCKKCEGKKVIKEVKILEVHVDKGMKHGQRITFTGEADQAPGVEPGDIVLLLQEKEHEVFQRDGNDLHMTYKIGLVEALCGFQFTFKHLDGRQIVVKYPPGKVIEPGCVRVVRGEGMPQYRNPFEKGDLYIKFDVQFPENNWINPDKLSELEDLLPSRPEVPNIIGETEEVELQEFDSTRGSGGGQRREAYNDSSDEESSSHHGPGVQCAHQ
UniProt Q9NYP3: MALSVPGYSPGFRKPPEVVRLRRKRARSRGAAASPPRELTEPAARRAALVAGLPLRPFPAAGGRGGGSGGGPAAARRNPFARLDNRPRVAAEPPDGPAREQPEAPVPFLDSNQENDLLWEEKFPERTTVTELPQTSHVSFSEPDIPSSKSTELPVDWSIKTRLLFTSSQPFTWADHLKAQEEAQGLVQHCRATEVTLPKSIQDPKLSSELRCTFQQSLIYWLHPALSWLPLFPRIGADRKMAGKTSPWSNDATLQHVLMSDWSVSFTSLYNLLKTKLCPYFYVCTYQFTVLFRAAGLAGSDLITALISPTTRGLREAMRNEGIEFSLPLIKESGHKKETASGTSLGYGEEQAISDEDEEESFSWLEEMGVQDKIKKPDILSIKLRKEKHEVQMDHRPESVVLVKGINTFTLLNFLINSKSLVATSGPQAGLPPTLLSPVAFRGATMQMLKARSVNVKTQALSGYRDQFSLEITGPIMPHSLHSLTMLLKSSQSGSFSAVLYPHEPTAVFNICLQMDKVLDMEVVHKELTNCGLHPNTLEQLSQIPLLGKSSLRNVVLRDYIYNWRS
UniProt Q9UHY7: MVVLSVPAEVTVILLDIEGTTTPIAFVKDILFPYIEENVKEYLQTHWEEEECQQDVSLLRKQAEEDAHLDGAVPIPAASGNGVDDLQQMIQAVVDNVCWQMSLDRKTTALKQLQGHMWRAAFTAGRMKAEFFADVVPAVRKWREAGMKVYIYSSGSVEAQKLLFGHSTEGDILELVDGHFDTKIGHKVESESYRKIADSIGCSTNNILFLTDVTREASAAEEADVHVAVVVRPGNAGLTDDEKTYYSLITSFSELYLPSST
UniProt Q9H2P9: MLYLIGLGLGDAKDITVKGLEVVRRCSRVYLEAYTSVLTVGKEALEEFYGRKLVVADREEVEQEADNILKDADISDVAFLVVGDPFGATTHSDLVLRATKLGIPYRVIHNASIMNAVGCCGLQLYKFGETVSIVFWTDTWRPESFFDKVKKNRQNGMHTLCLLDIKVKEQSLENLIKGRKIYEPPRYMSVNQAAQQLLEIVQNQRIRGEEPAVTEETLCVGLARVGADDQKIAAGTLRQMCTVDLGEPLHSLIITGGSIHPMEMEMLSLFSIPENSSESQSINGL
UniProt Q7L591: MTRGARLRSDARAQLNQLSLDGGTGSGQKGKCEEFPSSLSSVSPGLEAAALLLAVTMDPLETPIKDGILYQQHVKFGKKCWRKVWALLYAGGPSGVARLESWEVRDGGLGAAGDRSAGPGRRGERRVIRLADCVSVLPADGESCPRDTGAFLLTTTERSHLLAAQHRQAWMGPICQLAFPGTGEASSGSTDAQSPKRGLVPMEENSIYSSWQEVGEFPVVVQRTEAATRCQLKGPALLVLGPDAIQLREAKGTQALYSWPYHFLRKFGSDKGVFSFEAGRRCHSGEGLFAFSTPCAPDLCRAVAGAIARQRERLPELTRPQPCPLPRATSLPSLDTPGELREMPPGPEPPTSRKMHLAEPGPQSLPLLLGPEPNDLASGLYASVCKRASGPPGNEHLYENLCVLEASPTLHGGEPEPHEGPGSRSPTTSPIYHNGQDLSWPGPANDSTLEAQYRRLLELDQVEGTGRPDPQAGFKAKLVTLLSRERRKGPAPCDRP
UniProt P63167, whole entry: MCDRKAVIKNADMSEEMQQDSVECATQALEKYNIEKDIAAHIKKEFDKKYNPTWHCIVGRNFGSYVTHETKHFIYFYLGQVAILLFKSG
UniProt P42566: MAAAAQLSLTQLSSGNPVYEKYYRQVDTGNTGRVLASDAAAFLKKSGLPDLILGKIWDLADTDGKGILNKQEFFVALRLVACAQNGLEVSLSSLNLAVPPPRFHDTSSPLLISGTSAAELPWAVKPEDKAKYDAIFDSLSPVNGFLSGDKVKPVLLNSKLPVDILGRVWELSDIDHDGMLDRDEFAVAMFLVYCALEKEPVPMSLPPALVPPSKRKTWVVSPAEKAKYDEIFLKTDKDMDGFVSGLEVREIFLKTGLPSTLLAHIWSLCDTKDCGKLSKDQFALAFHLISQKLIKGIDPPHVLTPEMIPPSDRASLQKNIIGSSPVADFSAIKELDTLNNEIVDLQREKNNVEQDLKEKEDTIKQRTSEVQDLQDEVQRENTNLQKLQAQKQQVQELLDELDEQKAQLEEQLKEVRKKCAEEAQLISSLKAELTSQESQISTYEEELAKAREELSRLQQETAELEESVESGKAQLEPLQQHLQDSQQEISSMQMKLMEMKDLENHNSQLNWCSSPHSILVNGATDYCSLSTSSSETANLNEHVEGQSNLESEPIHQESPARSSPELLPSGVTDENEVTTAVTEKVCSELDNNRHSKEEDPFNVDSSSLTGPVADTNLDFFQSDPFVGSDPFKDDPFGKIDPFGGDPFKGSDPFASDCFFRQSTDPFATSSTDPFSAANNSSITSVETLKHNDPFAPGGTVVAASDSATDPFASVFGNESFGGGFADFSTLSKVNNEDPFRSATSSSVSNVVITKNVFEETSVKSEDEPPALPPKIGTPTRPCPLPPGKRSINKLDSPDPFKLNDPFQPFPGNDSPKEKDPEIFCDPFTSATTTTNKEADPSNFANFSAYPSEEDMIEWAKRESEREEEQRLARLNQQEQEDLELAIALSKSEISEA
UniProt P63241: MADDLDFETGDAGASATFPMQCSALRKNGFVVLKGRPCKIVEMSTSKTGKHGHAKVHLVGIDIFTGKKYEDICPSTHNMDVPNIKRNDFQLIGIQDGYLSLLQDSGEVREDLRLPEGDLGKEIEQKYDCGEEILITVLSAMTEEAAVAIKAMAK
UniProt P63172, whole entry: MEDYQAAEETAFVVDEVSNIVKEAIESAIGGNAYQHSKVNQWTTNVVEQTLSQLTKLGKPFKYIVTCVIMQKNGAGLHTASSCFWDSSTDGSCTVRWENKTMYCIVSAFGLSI

Compound in this experiment: COc1ccc(Cn2ccc3ccc(C(=O)NO)cc32)cc1
The experiment is described as follows: dose-dependent thermal stabilisation call (2D-TPP, DLPTP, 10% FDR) (binary (1 = stabilised)); higher = stabilised by the compound. The conditions noted are these: system: HL-60 intact cells; concentration range 0.04-10 µM.
For the target DOCK8 (UniProt Q8NF50), the “dose-dependent thermal stabilisation call” value was inactive: 0.
For ENSA (UniProt O43768), the “dose-dependent thermal stabilisation call” value is inactive: 0.
With EBAG9 (UniProt O00559), the “dose-dependent thermal stabilisation call” value is inactive: 0.
Turning to EED (UniProt O75530), the “dose-dependent thermal stabilisation call” value was inactive: 0.
Turning to DPY19L1 (UniProt Q2PZI1), the “dose-dependent thermal stabilisation call” value was inactive: 0.
On to EAF1 (UniProt Q96JC9), for which the “dose-dependent thermal stabilisation call” value was inactive: 0.
For DPF2 (UniProt Q92785), the “dose-dependent thermal stabilisation call” value was inactive: 0.
Take EIF3C (UniProt Q99613): the “dose-dependent thermal stabilisation call” value was inactive: 0.
In the case of DNAJB14 (UniProt Q8TBM8) it was inactive: 0.
As to ERGIC2 (UniProt Q96RQ1), the “dose-dependent thermal stabilisation call” value is inactive: 0.
In the case of ERCC6 it was inactive: 0.
In the case of EGR1 (UniProt P18146) it was inactive: 0.
On to DYSFIP1 (UniProt Q86WC6), for which the “dose-dependent thermal stabilisation call” value is inactive: 0.
As to EHBP1L1 (UniProt Q8N3D4), the “dose-dependent thermal stabilisation call” value was inactive: 0.
For DNAJA2 (UniProt O60884), the “dose-dependent thermal stabilisation call” value is inactive: 0.
In the case of DONSON (UniProt Q9NYP3) it was inactive: 0.
Then EIF6 (UniProt P56537), with inactive: 0.
In the case of ERO1L (UniProt Q96HE7) it was inactive: 0; in that of ENOPH1 (UniProt Q9UHY7), inactive: 0; in that of DOPEY2 (UniProt Q9Y3R5), inactive: 0.
Turning to EIF5B (UniProt O60841), the “dose-dependent thermal stabilisation call” value was inactive: 0.
With EPB41 (UniProt P11171), the “dose-dependent thermal stabilisation call” value is inactive: 0.
Turning to ERLIN1 (UniProt O75477), the “dose-dependent thermal stabilisation call” value was inactive: 0.
Consider DPH5 (UniProt Q9H2P9), for which the “dose-dependent thermal stabilisation call” value was active: 1.
Then EEF1E1 (UniProt O43324), with inactive: 0; and ELOVL6 (UniProt Q9H5J4), with inactive: 0; and DOK3 (UniProt Q7L591), with inactive: 0.
For the target ECE1 (UniProt P42892), the “dose-dependent thermal stabilisation call” value is inactive: 0.
Then DYNLL1 (UniProt P63167), with inactive: 0; and EPS15 (UniProt P42566), with inactive: 0; and EIF5A (UniProt P63241), with inactive: 0.
As for EIF3E (UniProt P60228), the “dose-dependent thermal stabilisation call” value is inactive: 0.
As for EBP (UniProt Q15125), the “dose-dependent thermal stabilisation call” value is inactive: 0.
Then DOCK11 (UniProt Q5JSL3), with inactive: 0.
In the case of DOCK6 (UniProt Q96HP0), the “dose-dependent thermal stabilisation call” value was inactive: 0.
As to EIF2C1 (UniProt Q9UL18), the “dose-dependent thermal stabilisation call” value was inactive: 0.
In the case of DYNLT1 (UniProt P63172), the “dose-dependent thermal stabilisation call” value was inactive: 0.

(Values after the supplement of paper PMC7666118.)
